PubChem BioAssay AID1508597 – Cure First – 2020

Aim: 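Genes whose silencing sensitises or protects ovarian cancer cells against rucaparib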 (primary screen)
Cell system: human ovarian carcinoma lines grown from tumours: OCI-P5x (papillary serous) and OCI-C5x (clear cell)
Reagent: siRNA pool against human genes, 1.25 pmol siRNA per well
Duration: 72 h or 96 h, depending on the cell culture
Conditions: rucaparib 20 µM (about IC30) or vehicle, present until read-out
Detection: 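Luminescent ATP-based viability assay read 72 or 96 h after transfection, depending on culture, given as normalised percent viability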
Scale: viability, normalised: higher = more viable cells remaining
Call rule: 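a well counts as a hit if its normalised viability is under 80 percent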
Meaning of the calls: active = viability under 80%; inactive = viability 80% or more
Shown is an unselected part of about 2,100 deposited reagents. 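Calls flag viability under 80% in either arm, not effects specific to rucaparib; the reference for percent is not stated.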 Some reagents were tested in more than one well and are listed for each. Not stated in the record: the 100% reference.

Gene | rucaparib or vehicle | cell line | technical replicate | viability, normalised (%) | call
NME6 (GeneID 10201) | Rucaparib | OCI-C5x (clear cell) | 1 | 43.6 | active
NME6 (GeneID 10201) | Rucaparib | OCI-C5x (clear cell) | 1 | 67 | active
NME6 (GeneID 10201) | Rucaparib | OCI-C5x (clear cell) | 2 | 50.5 | active
NME6 (GeneID 10201) | Rucaparib | OCI-C5x (clear cell) | 2 | 44.7 | active
NME6 (GeneID 10201) | Rucaparib | OCI-C5x (clear cell) | 3 | 35.6 | active
NME6 (GeneID 10201) | Rucaparib | OCI-C5x (clear cell) | 3 | 43.8 | active
NME6 (GeneID 10201) | Rucaparib | OCI-P5x (serous) | 1 | 61.7 | active
NME6 (GeneID 10201) | Rucaparib | OCI-P5x (serous) | 1 | 83.2 | inactive
NME6 (GeneID 10201) | Rucaparib | OCI-P5x (serous) | 2 | 75.3 | active
NME6 (GeneID 10201) | Rucaparib | OCI-P5x (serous) | 2 | 65.7 | active
NME6 (GeneID 10201) | Rucaparib | OCI-P5x (serous) | 3 | 63.6 | active
NME6 (GeneID 10201) | Rucaparib | OCI-P5x (serous) | 3 | 65.1 | active
NME6 (GeneID 10201) | Vehicle | OCI-C5x (clear cell) | 1 | 60.9 | active
NME6 (GeneID 10201) | Vehicle | OCI-C5x (clear cell) | 1 | 42 | active
NME6 (GeneID 10201) | Vehicle | OCI-C5x (clear cell) | 2 | 43.9 | active
NME6 (GeneID 10201) | Vehicle | OCI-C5x (clear cell) | 2 | 64 | active
NME6 (GeneID 10201) | Vehicle | OCI-C5x (clear cell) | 3 | 50.6 | active
NME6 (GeneID 10201) | Vehicle | OCI-C5x (clear cell) | 3 | 66.5 | active
NME6 (GeneID 10201) | Vehicle | OCI-P5x (serous) | 1 | 64.2 | active
NME6 (GeneID 10201) | Vehicle | OCI-P5x (serous) | 1 | 85.5 | inactive
NME6 (GeneID 10201) | Vehicle | OCI-P5x (serous) | 2 | 49 | active
NME6 (GeneID 10201) | Vehicle | OCI-P5x (serous) | 2 | 58.2 | active
NME6 (GeneID 10201) | Vehicle | OCI-P5x (serous) | 3 | 74.1 | active
NME6 (GeneID 10201) | Vehicle | OCI-P5x (serous) | 3 | 65.5 | active

A run of entries taken from the entries so far:
Gene | rucaparib or vehicle | cell line | technical replicate | viability, normalised (%) | call
NME6 (GeneID 10201) | Vehicle | OCI-C5x (clear cell) | 2 | 43.9 | active
NME6 (GeneID 10201) | Vehicle | OCI-C5x (clear cell) | 2 | 64 | active
NME6 (GeneID 10201) | Vehicle | OCI-C5x (clear cell) | 3 | 50.6 | active
NME6 (GeneID 10201) | Vehicle | OCI-C5x (clear cell) | 3 | 66.5 | active
NME6 (GeneID 10201) | Vehicle | OCI-P5x (serous) | 1 | 64.2 | active
NME6 (GeneID 10201) | Vehicle | OCI-P5x (serous) | 1 | 85.5 | inactive
NME6 (GeneID 10201) | Vehicle | OCI-P5x (serous) | 2 | 49 | active

Next reagents:
Gene | rucaparib or vehicle | cell line | technical replicate | viability, normalised (%) | call
MAP3K3 (GeneID 4215) | Rucaparib | OCI-C5x (clear cell) | 1 | 70.7 | active
MAP3K3 (GeneID 4215) | Rucaparib | OCI-C5x (clear cell) | 2 | 70.7 | active
MAP3K3 (GeneID 4215) | Rucaparib | OCI-C5x (clear cell) | 3 | 63 | active
MAP3K3 (GeneID 4215) | Rucaparib | OCI-P5x (serous) | 1 | 88.1 | inactive
MAP3K3 (GeneID 4215) | Rucaparib | OCI-P5x (serous) | 2 | 88.1 | inactive
MAP3K3 (GeneID 4215) | Rucaparib | OCI-P5x (serous) | 3 | 87.9 | inactive
MAP3K3 (GeneID 4215) | Vehicle | OCI-C5x (clear cell) | 1 | 75.3 | active
MAP3K3 (GeneID 4215) | Vehicle | OCI-C5x (clear cell) | 2 | 59.9 | active
MAP3K3 (GeneID 4215) | Vehicle | OCI-C5x (clear cell) | 3 | 60.9 | active
MAP3K3 (GeneID 4215) | Vehicle | OCI-P5x (serous) | 1 | 104 | inactive
MAP3K3 (GeneID 4215) | Vehicle | OCI-P5x (serous) | 2 | 82.4 | inactive
MAP3K3 (GeneID 4215) | Vehicle | OCI-P5x (serous) | 3 | 91.6 | inactive
SMAD3 (GeneID 4088) | Rucaparib | OCI-C5x (clear cell) | 1 | 48.2 | active
SMAD3 (GeneID 4088) | Rucaparib | OCI-C5x (clear cell) | 2 | 41.8 | active
SMAD3 (GeneID 4088) | Rucaparib | OCI-C5x (clear cell) | 3 | 47.3 | active
SMAD3 (GeneID 4088) | Rucaparib | OCI-P5x (serous) | 1 | 56.8 | active
SMAD3 (GeneID 4088) | Rucaparib | OCI-P5x (serous) | 2 | 63.5 | active
SMAD3 (GeneID 4088) | Rucaparib | OCI-P5x (serous) | 3 | 61.7 | active
SMAD3 (GeneID 4088) | Vehicle | OCI-C5x (clear cell) | 1 | 37.9 | active
SMAD3 (GeneID 4088) | Vehicle | OCI-C5x (clear cell) | 2 | 47.4 | active
SMAD3 (GeneID 4088) | Vehicle | OCI-C5x (clear cell) | 3 | 37.3 | active
SMAD3 (GeneID 4088) | Vehicle | OCI-P5x (serous) | 1 | 67.3 | active
SMAD3 (GeneID 4088) | Vehicle | OCI-P5x (serous) | 2 | 66.2 | active
SMAD3 (GeneID 4088) | Vehicle | OCI-P5x (serous) | 3 | 71.5 | active
CBX3 (GeneID 11335) | Rucaparib | OCI-C5x (clear cell) | 1 | 71.2 | active
CBX3 (GeneID 11335) | Rucaparib | OCI-C5x (clear cell) | 2 | 58.9 | active
CBX3 (GeneID 11335) | Rucaparib | OCI-C5x (clear cell) | 3 | 61.7 | active
CBX3 (GeneID 11335) | Rucaparib | OCI-P5x (serous) | 1 | 79.2 | active
CBX3 (GeneID 11335) | Rucaparib | OCI-P5x (serous) | 2 | 90.5 | inactive
CBX3 (GeneID 11335) | Rucaparib | OCI-P5x (serous) | 3 | 93 | inactive
CBX3 (GeneID 11335) | Vehicle | OCI-C5x (clear cell) | 1 | 47.1 | active
CBX3 (GeneID 11335) | Vehicle | OCI-C5x (clear cell) | 2 | 43.2 | active
CBX3 (GeneID 11335) | Vehicle | OCI-C5x (clear cell) | 3 | 67.6 | active
CBX3 (GeneID 11335) | Vehicle | OCI-P5x (serous) | 1 | 76.7 | active
CBX3 (GeneID 11335) | Vehicle | OCI-P5x (serous) | 2 | 71 | active
CBX3 (GeneID 11335) | Vehicle | OCI-P5x (serous) | 3 | 57.8 | active
